Assay results published in article PMC11548433.
These are yes or no findings as the source states them, for the method shown. A result given as binding can be weak or reduced; the word gives no strength.

Target: GmMYB29A1 (Gal4BD-GmMYB29A1) (soybean (Glycine max)) (UniProt Q9S7E3)
Assay: two-hybrid; prey pAD-GmWRKY72 (Gal4AD) and baits as Gal4BD fusions co-transformed into yeast strain PJ69-4a; growth on SD-His-Leu-Trp medium with 40 mM 3AT; pAD empty vector as negative control

binding: binds
Substance: GmWRKY72 (Gal4AD-GmWRKY72) (from UniProt K7MKV5)
